SMILES strings stand for the structures. Counter-ions that a name gives are not always drawn. The list shows a part of the results. Plates or batches differ in their baseline, so values are only roughly comparable.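 HEK293 lines stably express B-domain-deleted factor VIII fused to Gaussia luciferase, wild type or a misfolding-prone missense mutant. Scores equal triplicate-well mean luminescence minus DMSO mean, divided by DMSO standard deviation; scores of 2 or higher are hits. Low scores may indicate reduced secretion or worse cell viability.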

This assay concerns HEK293 p.N1941S BDD-FVIII-Gluc. Put plainly: secreted FVIII-Gluc luciferase Z-score vs DMSO control; higher = more FVIII-Gluc secretion. Conditions: 5 µM; 24 h.
For the compound `OCCN1C[C@H](O)[C@@H](O)[C@H](O)[C@H]1CO` [Miglitol (Glyset)], the “secreted FVIII-Gluc luciferase Z-score” value is inactive: -0.487.
Turning to `CC1(C)S[C@@H]2[C@H](NC(=O)[C@H](NC(=O)N3CCNC3=O)c3ccccc3)C(=O)N2[C@H]1C(=O)O` [Azlocillin sodium salt], the “secreted FVIII-Gluc luciferase Z-score” value was inactive: -0.0124.
For the compound `CN(CCOc1ccc(CC2SC(=O)NC2=O)cc1)c1ccccn1` (configuration not stated) [Rosiglitazone HCl], the “secreted FVIII-Gluc luciferase Z-score” value is inactive: 0.132.
In the case of `CC1(C)[C@H](C(=O)O)N2C(=O)C[C@H]2S1(=O)=O` [Sulbactam], the “secreted FVIII-Gluc luciferase Z-score” value was inactive: 0.681.
Turning to `C#Cc1cccc(Nc2ncnc3cc(OCCOC)c(OCCO)cc23)c1` [OSI-420 (Desmethyl Erlotinib)], the “secreted FVIII-Gluc luciferase Z-score” value is inactive: -1.99.
Then `O=C(OCC(O)CO)c1ccccc1Nc1ccnc2cc(Cl)ccc12` (configuration not stated) [Glafenine HCl], with inactive: 1.31.
For the compound `O=C(C[S+]([O-])Cc1ccco1)NC/C=C\COc1cc(CN2CCCCC2)ccn1` (configuration not stated) [Lafutidine], the “secreted FVIII-Gluc luciferase Z-score” value was inactive: -0.453.
In the case of `Nc1nc(N)nc(-c2cc(Cl)ccc2Cl)n1` [Irsogladine], the “secreted FVIII-Gluc luciferase Z-score” value is inactive: -0.0661.
As to `Clc1ccccc1C(c1ccccc1)(c1ccccc1)n1ccnc1` [Clotrimazole (Canesten)], the “secreted FVIII-Gluc luciferase Z-score” value is inactive: -1.4.
`O=C(CCCCCCC(=O)Nc1ccccc1)NO` [Vorinostat (SAHA)]: the “secreted FVIII-Gluc luciferase Z-score” value is active: 6.07.
The result for `CN(C)CCc1c[nH]c2ccc(CS(=O)(=O)N3CCCC3)cc12` [Almotriptan malate (Axert)] reads inactive: -1.75; that for `CC(=O)S[C@@H]1CC2=CC(=O)CC[C@]2(C)[C@H]2CC[C@@]3(C)[C@@H](CC[C@@]34CCC(=O)O4)[C@H]12` [Spironolactone], inactive: -1.58.

Values taken from the supplement of paper PMC12024529.
